According to publication PMC4342582:
Results are given in words; binding and its absence hold for the method and conditions named. Binding seen in cells or lysates may run through a third protein. These calls come from enrichment with a bait or labelling near it, and not all partners need be listed.

The chains behind the UniProt entries cited, without tags or fusion partners.
UniProt Q9NZI8: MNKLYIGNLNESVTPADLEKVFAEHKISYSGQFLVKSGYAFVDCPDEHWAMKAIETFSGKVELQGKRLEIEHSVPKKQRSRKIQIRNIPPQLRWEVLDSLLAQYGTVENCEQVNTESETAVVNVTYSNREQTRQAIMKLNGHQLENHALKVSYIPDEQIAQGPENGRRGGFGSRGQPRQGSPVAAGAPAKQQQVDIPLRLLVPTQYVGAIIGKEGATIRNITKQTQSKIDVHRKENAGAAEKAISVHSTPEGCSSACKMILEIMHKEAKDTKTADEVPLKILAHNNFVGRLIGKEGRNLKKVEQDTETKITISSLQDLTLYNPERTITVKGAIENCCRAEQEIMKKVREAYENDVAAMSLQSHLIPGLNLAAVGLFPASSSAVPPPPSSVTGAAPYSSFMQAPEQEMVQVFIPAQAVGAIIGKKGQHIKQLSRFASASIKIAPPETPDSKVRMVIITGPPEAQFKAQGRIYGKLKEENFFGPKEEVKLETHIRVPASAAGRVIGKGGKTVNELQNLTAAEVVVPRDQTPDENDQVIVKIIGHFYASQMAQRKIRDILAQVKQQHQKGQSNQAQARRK
UniProt P52732: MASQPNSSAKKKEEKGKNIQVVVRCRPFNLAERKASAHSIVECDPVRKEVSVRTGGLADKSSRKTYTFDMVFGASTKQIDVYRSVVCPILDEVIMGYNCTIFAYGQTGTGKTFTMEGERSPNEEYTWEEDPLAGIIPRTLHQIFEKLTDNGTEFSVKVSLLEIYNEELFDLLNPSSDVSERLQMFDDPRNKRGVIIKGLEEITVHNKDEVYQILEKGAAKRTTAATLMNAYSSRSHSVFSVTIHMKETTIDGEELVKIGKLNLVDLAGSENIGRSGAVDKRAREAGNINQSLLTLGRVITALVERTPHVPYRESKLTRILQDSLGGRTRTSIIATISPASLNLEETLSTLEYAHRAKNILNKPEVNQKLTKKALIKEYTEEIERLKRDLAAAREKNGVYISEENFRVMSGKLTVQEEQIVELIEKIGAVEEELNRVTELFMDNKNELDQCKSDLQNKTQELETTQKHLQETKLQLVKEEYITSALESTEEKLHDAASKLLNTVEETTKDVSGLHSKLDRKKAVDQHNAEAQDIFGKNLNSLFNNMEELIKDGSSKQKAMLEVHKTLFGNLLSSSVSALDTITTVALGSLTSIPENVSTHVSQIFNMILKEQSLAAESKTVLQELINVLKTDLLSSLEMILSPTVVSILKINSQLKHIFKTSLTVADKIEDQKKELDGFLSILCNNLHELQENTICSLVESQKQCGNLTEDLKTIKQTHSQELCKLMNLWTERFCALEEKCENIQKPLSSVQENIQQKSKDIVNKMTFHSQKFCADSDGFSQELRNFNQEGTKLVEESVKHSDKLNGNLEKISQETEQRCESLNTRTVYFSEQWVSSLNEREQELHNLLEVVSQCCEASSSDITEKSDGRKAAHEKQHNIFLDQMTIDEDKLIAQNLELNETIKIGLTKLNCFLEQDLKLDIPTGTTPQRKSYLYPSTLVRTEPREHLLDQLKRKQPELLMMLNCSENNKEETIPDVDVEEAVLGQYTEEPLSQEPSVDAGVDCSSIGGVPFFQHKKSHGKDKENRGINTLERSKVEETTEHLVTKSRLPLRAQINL

Target: FLAG-GFP-tagged human ZBP1 (human) (UniProt Q9NZI8)
Test: affinity purification with mass spectrometry; anti-FLAG M2 agarose beads, extract of MDA231/FLAG-GFP-ZBP1 cells treated with RNase, 6 h at 4°C; lysis buffer 10 mM HEPES pH 7.8, 100 mM NaCl, 10 mM KCl, 0.5% NP-40; Coomassie band cut out, MALDI-TOF

binding: binds
Substance: KIF11, endogenous (from UniProt P52732 1-1056)
